PubChem BioAssay AID743121 – NCATS | 2013
Shown is one part, drawn at random, of about 26,000 reagents tested. 167 of them (0.63%) count as active. 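Calls are per gene from RSA p-values that are not deposited; an individual active-marked siRNA can sensitise only weakly.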 Unmarked entries are inactive. The numbers tell different reagents against one gene apart.

Aim: 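Partners whose loss is lethal together with topoisomerase I blockade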 (primary screen)
System: MDA-MB-231 cells, a human breast cancer line
Knock-down reagent: single siRNA against human genes, 20 nM siRNA (0.8 pmol per well)
Time to read-out: 120 h (drug added 48 h after transfection, read 72 h later)
Challenge: camptothecin 20 nM (about EC30) for 72 h; vehicle 0.1% DMSO in parallel plates
Read-out: 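CellTiter-Glo ATP signal, scaled to control siRNA as percent viability; sensitisation given as log2 of untreated divided by camptothecin-treated viability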
Direction: log2 vehicle/camptothecin viability: higher = stronger sensitisation to camptothecin; viability with camptothecin and viability without drug: higher = more viable cells
Call rule: 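Active genes have an RSA gene-level p-value below 0.001, computed from the ratios of their separate siRNAs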

gene symbol | siRNA no. | log2 vehicle/camptothecin viability | viability with camptothecin (% of control) | viability without drug (% of control)
CSAD | 1 | -0.032 | 74.9 | 73.3
CSAD | 2 | -0.0582 | 85.7 | 82.3
CSAD | 3 | 0.00621 | 99.5 | 99.9
CSAD | 4 | 0.0423 | 79.8 | 82.2
ADGRF1 | 1 | -0.0957 | 102 | 95.7
ADGRF1 | 2 | -0.0478 | 91.2 | 88.3
ADGRF1 | 3 | -0.406 | 93.7 | 70.7
ADGRF1 | 4 | 0.0825 | 72.2 | 76.5
SERPINB8 | 1 | -0.0586 | 83 | 79.7
SERPINB8 | 2 | -0.75 | 17.5 | 10.4
SERPINB8 | 3 | -0.113 | 92.3 | 85.4
SERPINB8 | 4 | 0.199 | 70.7 | 81.1
SOX2-OT | 1 | -0.123 | 91.4 | 84
SOX2-OT | 2 | -0.0962 | 119 | 112
BDKRB2 | 1 | 0.356 | 10.6 | 13.6
BDKRB2 | 2 | -0.727 | 44.3 | 26.8
BDKRB2 | 3 | -0.0441 | 101 | 98.2
BDKRB2 | 4 | -0.348 | 53 | 41.6
ALS2 | 1 | -0.33 | 78.1 | 62.1
ALS2 | 2 | 0.442 | 56.3 | 76.5
ALS2 | 3 | -0.412 | 106 | 79.3
ALS2 | 4 | -0.0225 | 90.6 | 89.2
PRSS8 | 1 | 0.375 | 64.7 | 83.9
PRSS8 | 2 | -0.617 | 40.7 | 26.6
PRSS8 | 3 | -0.0532 | 47.6 | 45.9
PRSS8 | 4 | -0.341 | 64.2 | 50.7
NAGLU | 1 | -0.266 | 89.1 | 74.1
NAGLU | 2 | -0.792 | 72.2 | 41.7
NAGLU | 3 | -0.174 | 93.8 | 83.2
NAGLU | 4 | -0.375 | 74.4 | 57.4
PTPRN | 1 | -0.197 | 45.7 | 39.9
PTPRN | 2 | -0.257 | 64.5 | 54
PTPRN | 3 | -0.321 | 78.7 | 63
PTPRN | 4 | 0.525 | 28.1 | 40.4
GNB5 | 1 | -0.8 | 47.3 | 27.2
GNB5 | 2 | -0.00385 | 89.9 | 89.7
GNB5 | 3 | -0.133 | 77.7 | 70.9
FOLR1 | 1 | 0.17 | 27.7 | 31.2
FOLR1 | 2 | -0.0323 | 86.9 | 85
FOLR1 | 3 | 0.246 | 60.6 | 71.9
FOLR1 | 4 | 0.125 | 73.4 | 80
PTPRK | 1 | 0.0634 | 101 | 105
PTPRK | 2 | -0.673 | 59.4 | 37.3
PTPRK | 3 | -0.132 | 117 | 107
PTPRK | 4 | -0.38 | 87.6 | 67.3
ETNK1 | 1 | -0.17 | 102 | 90.3
ETNK1 | 2 | 0.129 | 91.3 | 99.9
ETNK1 | 3 | -0.191 | 90.3 | 79.1
ETNK1 | 4 | -0.504 | 71.3 | 50.3
KCNA4 | 1 | -0.045 | 109 | 105
KCNA4 | 2 | 0.00227 | 50.7 | 50.7
KCNA4 | 3 | -0.341 | 53.5 | 42.2
KCNA4 | 4 | 0.222 | 75.3 | 87.9
MPRIP | 1 | 0.21 | 88.2 | 102
MPRIP | 2 | -0.464 | 61.8 | 44.8
MPRIP | 3 | -0.554 | 46.9 | 31.9
MPRIP | 4 | -0.387 | 87.4 | 66.8
KCND2 | 1 | -0.547 | 79.8 | 54.6
KCND2 | 2 | 1.24 | 24.4 | 57.7
KCND2 | 3 | -0.502 | 79.8 | 56.3
KCND2 | 4 | -0.0757 | 74.9 | 71
EGFEM1P | 1 | 0.243 | 49 | 58
EGFEM1P | 2 | -0.142 | 85.6 | 77.5
EGFEM1P | 3 | -0.0354 | 48.2 | 47
EGFEM1P | 4 | -0.138 | 48.9 | 44.4
EPHB2 | 1 | 0.084 | 113 | 120
EPHB2 | 2 | -0.668 | 28.7 | 18
EPHB2 | 3 | 0.814 | 13.1 | 23
EPHB2 | 4 | -0.0138 | 50 | 49.5
CES2 | 1 | 0.132 | 43.2 | 47.3
CES2 | 2 | -0.334 | 68.4 | 54.3
CES2 | 3 | -0.048 | 59.1 | 57.1
CES2 | 4 | 0.0985 | 44.8 | 48
NRTN | 1 | 0.0735 | 52.9 | 55.6
NRTN | 2 | -0.493 | 72.3 | 51.4
NRTN | 3 | 0.0877 | 53.3 | 56.6
NRTN | 4 | -0.454 | 90.1 | 65.8
BCL2L12 | 1 | -0.17 | 72.3 | 64.3
BCL2L12 | 2 | -0.778 | 98.6 | 57.5
BCL2L12 | 3 | 0.121 | 63.1 | 68.6
BCL2L12 | 4 | -0.279 | 66.9 | 55.1
KCNK15 | 1 | -0.0997 | 106 | 98.5
KCNK15 | 2 | -0.322 | 120 | 95.7
KCNK15 | 3 | 0.15 | 50.7 | 56.2
GABBR2 | 1 | -0.662 | 73.9 | 46.7
GABBR2 | 2 | -0.327 | 134 | 107
GABBR2 | 3 | -0.336 | 95.8 | 75.9

Entries listed so far whose target name begins with B or b:
gene symbol | siRNA no. | log2 vehicle/camptothecin viability | viability with camptothecin (% of control) | viability without drug (% of control)
BDKRB2 | 1 | 0.356 | 10.6 | 13.6
BDKRB2 | 2 | -0.727 | 44.3 | 26.8
BDKRB2 | 3 | -0.0441 | 101 | 98.2
BDKRB2 | 4 | -0.348 | 53 | 41.6
BCL2L12 | 1 | -0.17 | 72.3 | 64.3
BCL2L12 | 2 | -0.778 | 98.6 | 57.5
BCL2L12 | 3 | 0.121 | 63.1 | 68.6
BCL2L12 | 4 | -0.279 | 66.9 | 55.1
